{
  "source": "PubChem BioAssay AID248",
  "about": "(DTP/NCI, 2004)",
  "tested_on": "L1210 leukemia ip in BDF1 mice, survival T/C",
  "assay": "NCI In Vivo Anticancer Drug Screen. Data for tumor model L1210 Leukemia (intraperitoneal) in B6D2F1 (BDF1) mice",
  "details": "T/C endpoint: mean survival time, higher T/C = longer survival",
  "key": {"[1]": {"details": "dose: 100.0 mg/kg/injection, schedule: Q01DX001 (ip), vehicle: saline"}, "[2]": {"details": "dose: 200.0 mg/kg/injection, schedule: Q01DX001 (ip), vehicle: saline"}, "[3]": {"details": "dose: 400.0 mg/kg/injection, schedule: Q01DX001 (ip), vehicle: saline"}, "[4]": {"details": "dose: 150.0 mg/kg/injection, schedule: Q01DX001 (ip), vehicle: saline"}, "[5]": {"details": "dose: 400.0 mg/kg/injection, schedule: Q04DX002 (ip), vehicle: saline"}, "[6]": {"details": "dose: 400.0 mg/kg/injection, schedule: Q01DX001 (ip), vehicle: carboxymethylcellulose (CMC)"}},
  "note": "The list does not hold the whole screen: it is rich in T/C values a quarter to a half above the control, in often repeated tests (any T/C) and in doses without a T/C. Other doses and runs of a compound stand elsewhere. T/C: endpoint of the treated group in % of that of the vehicle group. Some doses have a count of surviving animals in place of a T/C: the source files T/C as zero there, which appears to mark a toxic dose or a test without result, not a measured value. Some survivor counts are full or nearly so, which does not show that the dose was tolerated: the source hardly ever lists a survival T/C far under the control, and the zero likely stands for such cases as well. Counts of survivors are from the toxicity check (mostly the fifth day) where no day follows; animals may have died later. Schedule codes are those of the source, taken here to give the interval after Q, in days (D) or hours (H), and the number of doses after X. Some structures stand for samples that the source files as different forms (salt, stereo form or complex); doses refer to the form tested. For survival time, this PubChem deposit counts one and a half times the control or more as active, and values a quarter to a half above the control carry no call in these data; other NCI protocols may use other cut-offs. Some doses were run more than once; the values are given in rising order.",
  "data": [
    {"smiles": "Cc1ccc(NC(=O)N(O)C2CCCCC2C#N)cc1", "note": "(stereo not given)", "values": [
      {"measurement": "survivor count", "setting": "[1]", "result": "4 of 4"}
    ]},
    {"smiles": "C[C@@H]1CCC([C@@H](C)[C@H]2CC[C@H]3[C@@H]4CC[C@H]5C[C@@H](O)CC[C@]5(C)[C@H]4CC[C@]23C)=NC1", "values": [
      {"measurement": "survivor count", "setting": "dose: 250.0 mg/kg/injection, schedule: Q01DX001 (ip), vehicle: saline", "result": "0 of 4"},
      {"measurement": "survivor count", "setting": "dose: 500.0 mg/kg/injection, schedule: Q01DX001 (ip), vehicle: saline", "result": "0 of 4"}
    ]},
    {"smiles": "O=[N+]([O-])c1ccc(/C=N/Nc2c3ccccc3nc3ccccc23)cc1", "values": [
      {"measurement": "survivor count", "setting": "[1]", "result": "4 of 4"},
      {"measurement": "survivor count", "setting": "[2]", "result": "4 of 4"}
    ]},
    {"smiles": "CCCN(CCC)CCNCC(Cc1ccccc1)c1ccccc1", "note": "(stereo not given)", "values": [
      {"measurement": "survivor count", "setting": "dose: 200.0 mg/kg/injection, schedule: Q04DX002 (ip), vehicle: Klucel (hydroxypropylcellulose) (HPC)", "result": "0 of 3"}
    ]},
    {"smiles": "NNC(=O)C(N)Cc1ccccc1", "note": "(stereo not given)", "values": [
      {"measurement": "survivor count", "setting": "[3]", "result": "0 of 3"}
    ]},
    {"smiles": "NC(=S)N/N=C1/C(=O)c2cccc3cccc1c23", "values": [
      {"measurement": "survivor count", "setting": "dose: 150.0 mg/kg/injection, schedule: Q01DX001 (ip), vehicle: other", "result": "3 of 6"},
      {"measurement": "survivor count", "setting": "dose: 300.0 mg/kg/injection, schedule: Q01DX001 (ip), vehicle: other", "result": "1 of 6"}
    ]},
    {"smiles": "NC(Cn1cc(N(CCCl)CCCl)c(=O)[nH]c1=O)C(=O)O", "note": "(stereo not given)", "values": [
      {"measurement": "T/C", "setting": "dose: 10.0 mg/kg/injection, schedule: Q01DX009 (ip), vehicle: water", "result": "128 % of control"},
      {"measurement": "T/C", "setting": "dose: 14.0 mg/kg/injection, schedule: Q01DX009 (ip), vehicle: saline", "result": "130 % of control"},
      {"measurement": "T/C", "setting": "dose: 14.0 mg/kg/injection, schedule: Q01DX009 (ip), vehicle: water", "result": "127 % of control"},
      {"measurement": "T/C", "setting": "dose: 20.0 mg/kg/injection, schedule: Q01DX009 (ip), vehicle: water", "result": "130 % of control"},
      {"measurement": "T/C", "setting": "dose: 22.0 mg/kg/injection, schedule: Q01DX009 (ip), vehicle: saline", "result": "128 % of control"},
      {"measurement": "T/C", "setting": "dose: 27.0 mg/kg/injection, schedule: Q01DX009 (ip), vehicle: saline", "result": "136 % of control"},
      {"measurement": "T/C", "setting": "dose: 30.0 mg/kg/injection, schedule: Q01DX009 (ip), vehicle: water", "result": "136 % of control"},
      {"measurement": "T/C", "setting": "dose: 45.0 mg/kg/injection, schedule: Q01DX001 (ip), vehicle: saline", "result": "132 % of control"},
      {"measurement": "T/C", "setting": "dose: 50.0 mg/kg/injection, schedule: Q01DX001 (ip), vehicle: saline", "result": "125 % of control"},
      {"measurement": "survivor count", "setting": "dose: 50.0 mg/kg/injection, schedule: Q01DX009 (ip), vehicle: saline", "result": "5 of 6"},
      {"measurement": "survivor count", "setting": "dose: 60.0 mg/kg/injection, schedule: Q01DX009 (ip), vehicle: water", "result": "3 of 6"},
      {"measurement": "T/C", "setting": "dose: 66.6 mg/kg/injection, schedule: Q01DX001 (ip), vehicle: saline", "result": "143 % of control"},
      {"measurement": "T/C", "setting": "dose: 75.0 mg/kg/injection, schedule: Q01DX001 (ip), vehicle: saline", "result": "129 % of control"},
      {"measurement": "T/C", "setting": "[1]", "result": "135 and 137 % of control"},
      {"measurement": "survivor count", "setting": "dose: 120.0 mg/kg/injection, schedule: Q01DX009 (ip), vehicle: water", "result": "0 of 6"},
      {"measurement": "T/C", "setting": "[4]", "result": "137 % of control"},
      {"measurement": "survivor count", "setting": "[4]", "result": "1 of 4"},
      {"measurement": "survivor count", "setting": "[2]", "result": "0 of 4"},
      {"measurement": "survivor count", "setting": "dose: 300.0 mg/kg/injection, schedule: Q01DX001 (ip), vehicle: saline", "result": "0 of 4"}
    ]},
    {"smiles": "CN(C)c1ccc(/C=C/c2cc[n+](C)cc2)cc1", "values": [
      {"measurement": "survivor count", "setting": "dose: 32.0 mg/kg/injection, schedule: Q04DX003 (ip), vehicle: saline with Tween-80", "result": "1 of 6"}
    ]},
    {"smiles": "Cc1cc(Cl)ccc1OC(=O)Nc1cccc2ccccc12", "values": [
      {"measurement": "survivor count", "setting": "dose: 400.0 mg/kg/injection, schedule: Q04DX002 (ip), vehicle: carboxymethylcellulose (CMC)", "result": "6 of 6"}
    ]},
    {"smiles": "CCN(CC)CCCC(C)Nc1ncnc(N)c1N", "note": "(stereo not given)", "values": [
      {"measurement": "survivor count", "setting": "dose: 100.0 mg/kg/injection, schedule: Q04DX003 (ip), vehicle: Klucel (hydroxypropylcellulose) (HPC)", "result": "3 of 6"},
      {"measurement": "survivor count", "setting": "dose: 200.0 mg/kg/injection, schedule: Q04DX003 (ip), vehicle: Klucel (hydroxypropylcellulose) (HPC)", "result": "0 of 6"},
      {"measurement": "survivor count", "setting": "dose: 400.0 mg/kg/injection, schedule: Q04DX003 (ip), vehicle: Klucel (hydroxypropylcellulose) (HPC)", "result": "0 of 6"}
    ]},
    {"smiles": "O=C(Cc1cccc2ccccc12)N/N=C/c1ccccc1Cl", "values": [
      {"measurement": "survivor count", "setting": "dose: 200.0 mg/kg/injection, schedule: Q01DX009 (ip), vehicle: Klucel (hydroxypropylcellulose) (HPC)", "result": "6 of 6"}
    ]},
    {"smiles": "CC[N+](CC)(CC)c1ccccc1", "values": [
      {"measurement": "survivor count", "setting": "dose: 100.0 mg/kg/injection, schedule: Q04DX002 (ip), vehicle: saline", "result": "0 of 3"},
      {"measurement": "survivor count", "setting": "dose: 200.0 mg/kg/injection, schedule: Q04DX002 (ip), vehicle: saline", "result": "0 of 3"},
      {"measurement": "survivor count", "setting": "[5]", "result": "0 of 3"}
    ]},
    {"smiles": "Nc1cc(Cl)c(O)c(Cl)c1", "values": [
      {"measurement": "survivor count", "setting": "dose: 100.0 mg/kg/injection, schedule: Q01DX001 (ip), vehicle: saline with Tween-80", "result": "3 of 6"},
      {"measurement": "survivor count", "setting": "dose: 200.0 mg/kg/injection, schedule: Q01DX001 (ip), vehicle: carboxymethylcellulose (CMC)", "result": "2 of 6"},
      {"measurement": "survivor count", "setting": "[2]", "result": "1 of 4"},
      {"measurement": "survivor count", "setting": "[6]", "result": "1 of 6"},
      {"measurement": "survivor count", "setting": "[3]", "result": "0 of 4"},
      {"measurement": "survivor count", "setting": "dose: 800.0 mg/kg/injection, schedule: Q01DX001 (ip), vehicle: saline", "result": "0 of 4"}
    ]},
    {"smiles": "CCCCCCCCCCCCCCCCNCC(=O)Nc1ccc(S(=O)(=O)c2ccc(NC(=O)CNCCCCCCCCCCCCCCCC)cc2)cc1", "values": [
      {"measurement": "survivor count", "setting": "dose: 128.0 mg/kg/injection, schedule: Q01DX015 (ip), vehicle: carboxymethylcellulose (CMC)", "result": "1 of 6"},
      {"measurement": "survivor count", "setting": "dose: 400.0 mg/kg/injection, schedule: Q01DX001 (ip), vehicle: other", "result": "2 of 6"}
    ]},
    {"smiles": "Nc1nc(N)c(N=O)c(Nc2ccc(I)cc2)n1", "values": [
      {"measurement": "survivor count", "setting": "dose: 200.0 mg/kg/injection, schedule: Q01DX009 (ip), vehicle: acetone", "result": "3 of 6"},
      {"measurement": "survivor count", "setting": "[6]", "result": "2 of 6"}
    ]},
    {"smiles": "CC(C(=O)C(Cc1ccccc1)c1ccccc1)C1CCC2C3C(OC=O)CC4CC(OC=O)CCC4(C)C3CC(OC=O)C12C", "note": "(stereo not given)", "values": [
      {"measurement": "survivor count", "setting": "dose: 50.0 mg/kg/injection, schedule: Q01DX009 (ip), vehicle: saline with Tween-80", "result": "3 of 3"}
    ]},
    {"smiles": "COc1cc2c(cc1OC)C(CCN1C(=O)c3ccccc3C1=O)=NCC2", "values": [
      {"measurement": "survivor count", "setting": "dose: 100.0 mg/kg/injection, schedule: Q01DX009 (ip), vehicle: saline", "result": "6 of 6"},
      {"measurement": "survivor count", "setting": "dose: 200.0 mg/kg/injection, schedule: Q04DX003 (ip), vehicle: saline", "result": "0 of 6"},
      {"measurement": "survivor count", "setting": "dose: 400.0 mg/kg/injection, schedule: Q04DX003 (ip), vehicle: saline", "result": "0 of 6"}
    ]},
    {"smiles": "O=C(NCN1CCOCC1)Nc1ccc(Cl)cc1", "values": [
      {"measurement": "survivor count", "setting": "dose: 100.0 mg/kg/injection, schedule: Q01DX009 (ip), vehicle: gum acacia", "result": "0 of 6"}
    ]},
    {"smiles": "N#C/C([SH2+])=C(/[SH2+])C#N.N#C/C([SH2+])=C(/[SH2+])C#N.N#C/C([SH2+])=C(/[SH2+])C#N.N#C/C([SH2+])=C(/[SH2+])C#N.[Co+3].[Co+3].c1ccc([P+](c2ccccc2)(c2ccccc2)c2ccccc2)cc1", "values": [
      {"measurement": "survivor count", "setting": "[3]", "result": "2 of 6"}
    ]},
    {"smiles": "CNC(=O)Oc1ccc2c(C)cc(=O)oc2c1", "values": [
      {"measurement": "survivor count", "setting": "[5]", "result": "2 of 3"}
    ]},
    {"smiles": "O=C(Nc1ccc([N+](=O)[O-])cc1Cl)Oc1ccc(Cl)cc1Cl", "values": [
      {"measurement": "survivor count", "setting": "dose: 400.0 mg/kg/injection, schedule: Q01DX009 (ip), vehicle: carboxymethylcellulose (CMC)", "result": "3 of 3"}
    ]}
  ]
}
